Measurements reported in US20100331240A1.
No constants are given. Whether binding was seen depends on the method and setting. Some entries that bind do so weakly or less than the wild type.

Amino acid sequences for entries named in this document (tags omitted). A change or cut given only in a name is not applied to a line headed by its entry.
UniProt P11226: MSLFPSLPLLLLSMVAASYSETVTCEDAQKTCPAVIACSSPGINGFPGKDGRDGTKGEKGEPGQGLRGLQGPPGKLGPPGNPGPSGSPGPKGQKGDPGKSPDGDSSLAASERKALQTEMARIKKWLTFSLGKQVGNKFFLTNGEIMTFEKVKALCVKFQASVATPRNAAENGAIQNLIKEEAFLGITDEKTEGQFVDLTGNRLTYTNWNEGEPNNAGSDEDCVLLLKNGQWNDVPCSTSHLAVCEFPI

Molecular target: biotinylated human placental calreticulin (human) (UniProt P27797)
Experiment: ELISA: plate coated with lectin 10 ug/mL, biotinylated calreticulin 5 ug/mL, O.D. 405

recombinant human mannose-binding lectin (rhMBL) (from UniProt P11226 21-248)
binding: binds
